# Results: the supplement of paper PMC8975748
# Where a name gives a salt, the structure may show the parent alone. ± gives the standard deviation of the averaged measurements. The list shows a part of the results. Values are raw readings; no control value is given beside them.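 The yeast community starts from one strain carrying four plasmids, each with an amino-acid or uracil synthesis gene and a fluorescent protein. Random plasmid loss creates mixed prototroph and auxotroph subpopulations. Cells were fixed and counted by automated confocal fluorescence imaging, and DMSO-treated wells served as the vehicle reference.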
# Tested on: Saccharomyces cerevisiae BY4741 SeMeCo community
# Assay: imaged cell count per well (cells); higher = more cells
# Settings: 10 µM; 24 h; SM minimal medium
# Protocol: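 Same SeMeCo high-content imaging drug screen: Selleck FDA-approved drugs at 10 µM, 24 h in SM medium, 384-well plates, 3 replicates.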
row,Structure (SMILES),imaged cell count per well
1,C#C[C@]1(O)CC[C@H]2[C@@H]3CCc4cc(OC)ccc4[C@H]3CC[C@@]21C [Mestranol],26600 ± 3700
2,CCc1cc(C(N)=S)ccn1 [Ethionamide],21300 ± 11000
3,NC(=O)OCC(COC(N)=O)c1ccccc1 [Felbamate],27100 ± 2000
4,CN1C2CCC1CC(OC(=O)C(O)c1ccccc1)C2 (stereo not drawn) [Homatropine Bromide],26200 ± 2200
5,CC(=O)OCC1=C(C(=O)O)N2C(=O)[C@@H](NC(=O)CSc3ccncc3)[C@H]2SC1 [Cephapirin Benzathine],19600 ± 10000
6,CC(C)[C@H](N)C(=O)OCCOCn1cnc2c(=O)nc(N)[nH]c21 [Valaciclovir HCl],29000 ± 3100
7,O=C(Cn1ccnc1[N+](=O)[O-])NCc1ccccc1 [Benznidazole],23300 ± 2900
8,CNCCC(Oc1ccc(C(F)(F)F)cc1)c1ccccc1 (stereo not drawn) [Fluoxetine HCl],19300 ± 3000
9,CN(C)CCN1C(=O)c2cccc3cc(N)cc(c23)C1=O [Amonafide],28000 ± 3700
10,CC(=O)[C@H]1CC[C@H]2[C@@H]3CC=C4C[C@@H](O)CC[C@]4(C)[C@H]3CC[C@]12C [Pregnenolone],20900 ± 730
11,CN[C@@H]1[C@@H](O)[C@@H](O[C@@H]2[C@@H](O)[C@H](O[C@H]3O[C@H](CN)[C@@H](O)[C@H](O)[C@H]3O)[C@@H](N)C[C@H]2NC(=O)[C@@H](O)CN)OC[C@]1(C)O [Isepamicin Sulphate],22600 ± 5000
12,CCN(CC)CCOc1ccc(C(=C(Cl)c2ccccc2)c2ccccc2)cc1 [Clomifene citrate],23500 ± 4000
13,CN(C)[C@@H](CCOc1cccc2ccccc12)c1ccccc1 [Dapoxetine HCl],25300 ± 4200
14,CN(C)CCC=C1c2ccccc2C(C)(C)c2ccccc21 [Melitracen hydrochloride],31700 ± 8300
15,NCc1ccccc1CC(=O)N[C@@H]1C(=O)N2C(C(=O)O)=C(CSc3nnnn3CC(=O)O)CS[C@H]12 [Ceforanide],30800 ± 2300
16,CN(C)[C@@H]1C(O)=C(C(N)=O)C(=O)[C@@]2(O)C(O)=C3C(=O)c4c(O)ccc(Cl)c4[C@@](C)(O)[C@H]3C[C@@H]12 [Chlortetracycline HCl],22500 ± 1300
17,C[C@]12CCC(=O)C=C1[C@@H]1C[C@@H]1[C@H]1[C@@H]3[C@@H]4C[C@@H]4[C@@]4(CCC(=O)O4)[C@@]3(C)CC[C@@H]12 [Drospirenone],20000 ± 2500
18,C=C1CC[C@@H]2[C@](C)(CO)[C@H](O)CC[C@@]2(C)[C@H]1C/C=C1\C=COC1=O [Dehydroandrographolide],25100 ± 1200
19,OC1(c2ccc(Cl)c(C(F)(F)F)c2)CCN(CCCC(c2ccc(F)cc2)c2ccc(F)cc2)CC1 [Penfluridol],25400 ± 3600

row,Structure (SMILES),imaged cell count per well
1,C#C[C@]1(O)CC[C@H]2[C@@H]3CCC4=CC(=O)CC[C@@H]4[C@H]3CC[C@@]21CC [Levonorgestrel],25500 ± 1900
2,CN1CCCN=C1/C=C/c1cccc(O)c1 [Oxantel Pamoate],25100 ± 6300
3,Clc1ccc(COC(Cn2ccnc2)c2ccc(Cl)cc2Cl)c(Cl)c1 (stereo not drawn) [Miconazole Nitrate],3180 ± 630
4,Nc1nc(O)c2ncn(CCC(CO)CO)c2n1 [Penciclovir],26700 ± 14000
5,O=c1[nH]c(=O)n([C@H]2C[C@H](O)[C@@H](CO)O2)cc1I [Idoxuridine],26700 ± 6400
6,CCC[C@@H]1C[C@@H](C(=O)N[C@@H]([C@H]2O[C@H](SC)[C@H](OP(=O)(O)O)[C@@H](O)[C@H]2O)[C@H](C)Cl)N(C)C1 [Clindamycin Phosphate],27600 ± 4600
7,CCCOc1ccc2c(c1)CC[C@@H]1[C@@H]2CC[C@]2(C)[C@@H](OC)CC[C@@H]12 [Promestriene],22900 ± 4700
8,CC(C)Cc1ccc(C(C)C(=O)O)cc1 (stereo not drawn) [Ibuprofen Lysine],22800 ± 950
9,NC(=O)c1ncn([C@@H]2O[C@H](CO)[C@@H](O)[C@H]2O)n1 [Ribavirin],21100 ± 4400
10,CCN(CC)CC#CCOC(=O)C(O)(c1ccccc1)C1CCCCC1 (stereo not drawn) [Oxybutynin chloride],23800 ± 2900
11,Cc1c(Cl)cccc1Nc1ccccc1C(=O)O [Tolfenamic Acid],22600 ± 4500
12,CC(C)c1nc(N(C)S(C)(=O)=O)nc(-c2ccc(F)cc2)c1/C=C/[C@@H](O)C[C@@H](O)CC(=O)O [Rosuvastatin],13000 ± 640
13,CC1(C)[C@H](C(=O)O)N2C(=O)C[C@H]2S1(=O)=O [Sulbactam],28300 ± 1600
14,CC1=C(C(=O)OCCN(Cc2ccccc2)c2ccccc2)C(c2cccc([N+](=O)[O-])c2)C(P2(=O)OCC(C)(C)CO2)=C(C)N1 (stereo not drawn) [Efonidipine],18400 ± 11000
15,C/C=C\c1ccc(O)c(OC)c1 [Isoeugenol],27800 ± 5600
16,"CO[C@H]1C[C@@H]2CC[C@@H](C)[C@@](O)(O2)C(=O)C(=O)N2CCCC[C@H]2C(=O)O[C@H]([C@H](C)C[C@@H]2CC[C@@H](OP(C)(C)=O)[C@H](OC)C2)CC(=O)[C@H](C)/C=C(\C)[C@@H](O)[C@@H](OC)C(=O)[C@H](C)C[C@H](C)/C=C/C=C/C=C/1C [Ridaforolimus (Deforolimus, MK-8669)]",8270 ± 500
17,CC(=O)OCC1=C(C(=O)O)N2C(=O)[C@@H](NC(=O)Cc3cccs3)[C@H]2SC1 [Cephalothin],21400 ± 6100
18,CCOC(=O)CCC(=O)O[C@H]1[C@H](O[C@@H]2[C@@H](C)[C@H](O[C@H]3C[C@@](C)(OC)[C@@H](O)[C@H](C)O3)[C@@H](C)C(=O)O[C@H](CC)[C@@](C)(O)[C@H](O)[C@@H](C)C(=O)[C@H](C)C[C@@]2(C)O)O[C@H](C)C[C@@H]1N(C)C [Erythromycin Ethylsuccinate],22800 ± 8300
19,O=C(O)C[C@H](O)C[C@H](O)/C=C/c1c(C2CC2)nc2ccccc2c1-c1ccc(F)cc1 [Pitavastatin Calcium],13300 ± 1900

# Three entries from above, reformatted.
row	Structure (SMILES)	imaged cell count per well
12	CC(C)c1nc(N(C)S(C)(=O)=O)nc(-c2ccc(F)cc2)c1/C=C/[C@@H](O)C[C@@H](O)CC(=O)O [Rosuvastatin]	13000 ± 640
13	CC1(C)[C@H](C(=O)O)N2C(=O)C[C@H]2S1(=O)=O [Sulbactam]	28300 ± 1600
14	CC1=C(C(=O)OCCN(Cc2ccccc2)c2ccccc2)C(c2cccc([N+](=O)[O-])c2)C(P2(=O)OCC(C)(C)CO2)=C(C)N1 (stereo not drawn) [Efonidipine]	18400 ± 11000
